No end group written: not given here.
Test: peptide synthesis
Details: whole synthesis

KYKRQRW
purity (crude or final not stated): 95% or more
